Assay results from patent US12162957 (dated 2024).

How the values were obtained:
[1] = general procedure: Fmoc solid-phase peptide synthesis; 2-ClTrt; DIC/HOBt; conditions: whole synthesis
[2] = general procedure: Fmoc solid-phase peptide synthesis; Wang; DIC/HOBt; conditions: whole synthesis

Substance	crude yield [1] [%]	crude HPLC purity ([1]; HPLC) [%]	crude yield [2] [%]	crude HPLC purity ([2]; HPLC) [%]
Fmoc-[Asn(Trt)]D(OtBu)E(OtBu)C(Trt)E(OtBu)-OH	90	95	–	–
H-NDECELC(Acm)VNVACTGC(Acm)L-OH (cysteine pairing not given here)	–	–	80	50

[ ]: non-standard residue; d: D form. The star is where a group is joined. Asn(Trt) = N[C@@H](CC(=O)NC(c1ccccc1)(c1ccccc1)c1ccccc1)C(=O)O; Trt = c1ccc(C(c2ccccc2)(c2ccccc2)*)cc1; Fmoc = O=C(OCC1c2ccccc2-c2ccccc21)*; OtBu = CC(C)(C)O*; Acm = CC(=O)NC*
